The record followed here is patent US10786450B2, “Process for preparing a dry powder formulation comprising an anticholinergic, a corticosteroid and a beta-adrenergic” (CHIESI FARMACEUTICI S.p.A., priority 2017, dated 2020).

A short description of series [1]: Uniformity of distribution of the active ingredients in the powder blend by HPLC. It counts as physicochemical. Particulars: Example 3 powder formulation; 10 samples from different parts of the blend; mean value±RSD.
For series [2] the following is noted: micronized active ingredient as used in Example 3.

Counter-ions that a name gives are not always drawn.

As to `COc1ccc(CC(C)NCC(O)c2ccc(O)c(NC=O)c2)cc1` (stereo not shown) [FF, formoterol fumarate dihydrate], the Uniformity of distribution in series [1] is recorded as 100.5 (±1.5). Besides, in series [2], the “d(v0.1)” value is given as 0.9 micron, the “d(v0.5)” value is 2.3 micron and the “d(v0.9)” value turned out to be 4.2 micron.
